{
  "sequences": {"note": "Amino acid sequences for entries named in this document (tags omitted). Residues count along the entry.", "UniProt P14778, residues 18-569": "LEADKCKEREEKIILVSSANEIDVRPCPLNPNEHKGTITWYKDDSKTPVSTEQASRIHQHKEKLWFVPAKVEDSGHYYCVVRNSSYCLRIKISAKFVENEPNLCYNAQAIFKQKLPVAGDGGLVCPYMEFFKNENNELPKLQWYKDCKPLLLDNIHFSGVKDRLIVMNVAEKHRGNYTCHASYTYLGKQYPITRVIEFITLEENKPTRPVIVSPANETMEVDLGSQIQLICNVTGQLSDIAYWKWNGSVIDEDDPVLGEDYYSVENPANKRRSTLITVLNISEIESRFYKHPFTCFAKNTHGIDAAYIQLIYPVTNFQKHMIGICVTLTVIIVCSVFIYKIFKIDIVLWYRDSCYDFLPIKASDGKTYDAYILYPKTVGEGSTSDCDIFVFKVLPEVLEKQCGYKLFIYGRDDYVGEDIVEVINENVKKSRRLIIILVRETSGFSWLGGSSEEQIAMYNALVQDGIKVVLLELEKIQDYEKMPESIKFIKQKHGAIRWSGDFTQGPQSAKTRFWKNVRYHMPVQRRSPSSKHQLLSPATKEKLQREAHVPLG"},
  "source": "patent US20020156009A1",
  "about": "(published 2002)",
  "key": {"[1]": {"target": "T1, IL-1 receptor on murine cell lines D10 and RAW 264.7 (murine) (UniProt P13504)", "T1 sequence (looked up)": "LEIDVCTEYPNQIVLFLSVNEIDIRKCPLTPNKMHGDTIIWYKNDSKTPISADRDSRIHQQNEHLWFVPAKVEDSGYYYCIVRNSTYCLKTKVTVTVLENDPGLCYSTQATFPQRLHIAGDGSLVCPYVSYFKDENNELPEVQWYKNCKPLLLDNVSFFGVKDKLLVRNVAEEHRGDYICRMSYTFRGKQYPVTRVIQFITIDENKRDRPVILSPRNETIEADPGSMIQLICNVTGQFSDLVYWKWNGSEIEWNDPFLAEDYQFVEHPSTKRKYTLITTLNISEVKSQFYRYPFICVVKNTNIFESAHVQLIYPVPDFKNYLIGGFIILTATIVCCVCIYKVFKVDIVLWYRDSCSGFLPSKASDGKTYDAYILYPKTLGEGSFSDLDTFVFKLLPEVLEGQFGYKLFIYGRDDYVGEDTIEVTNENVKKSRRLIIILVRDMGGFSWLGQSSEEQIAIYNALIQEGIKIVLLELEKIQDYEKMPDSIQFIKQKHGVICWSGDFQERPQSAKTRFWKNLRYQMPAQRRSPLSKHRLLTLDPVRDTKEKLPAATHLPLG", "assay": "FACS on murine cell lines D10 and RAW 264.7"}, "[2]": {"target": "interleukin-1 (IL-1) receptor on human cells (human) (UniProt P14778)", "assay": "FACS, 5 nM IL-1 Hy2 on 10^6 human fibroblast cells (CCD 1089), BS3 crosslinker, anti-express tag antibody and PE anti-mouse Ig"}},
  "note": "Results are given in words; binding and its absence hold for the method and conditions named. Some binding calls cover weakened binding; strength is not graded here. Where a sequence is shown, tags or fusion partners need not be part of it.",
  "data": [
    {"binder": "recombinant tagged IL-1 Hy2 (ligand, not shown: small tags and cut ends) MCSLPMARYYIIKYADQKALYTRDGQLLVGDPVADNCCAEKICTLPNRGLDRTKVPIFLGIQGGSRCLACVETEEGPSLQLEDVNIEELYKGGEEATRFTFFQSSSGSAFRLEAAAWPGWFLCGPAEPQQPVQLTKESEPSARTKFYFEQSW", "values": [
      {"measurement": "binding", "setting": "[1]", "value": "binds"},
      {"measurement": "binding", "setting": "[2]", "value": "binds"}
    ]}
  ]
}
